This assay relates to HEK293A TEAD-LUC reporter. The assay is described as follows: TEAD-luciferase reporter activity (YAP activation), robust Z score vs plate; higher = stronger YAP/TEAD activation. The conditions noted are these: 24 h.

The list shows a part of the results. Repeats in this data set agree poorly, so a single value says little.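 The human kidney-derived cells carry a stably integrated construct of eight TEAD-binding elements driving luciferase, read by luminescence in a drug-repurposing library screen. A compound counts as a hit when its signal is more than five robust Z scores above the plate mean.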

In the case of `CO/N=C(\C(=O)N[C@@H]1C(=O)N2C(C(=O)OC(C)OC(C)=O)=C(COC(N)=O)CS[C@H]12)c1ccco1` (stereo not given in full) [Cefuroxime axetile], the TEAD-luciferase reporter activity (compound concentration: 2 uM) was inactive: -0.409.

On to `C[C@H]1[C@H](C)CC[C@]2(C(=O)O)CC[C@]3(C)C(=CC[C@@H]4[C@@]5(C)CC[C@H](O)C(C)(C)[C@@H]5CC[C@]43C)[C@H]12`, for which the TEAD-luciferase reporter activity (compound concentration: 200 nM) is active: 7.67, the TEAD-luciferase reporter activity (compound concentration: 2 uM) is inactive: -0.254 and the TEAD-luciferase reporter activity (compound concentration: 10 uM) is inactive: -0.348.

Take `O=C(O)CC[C@H](NC(=O)[C@@H](CSC1OC(=O)c2ccccc21)Cc1ccccc1)C(=O)Nc1ccccc1` (stereo not given in full): the TEAD-luciferase reporter activity (compound concentration: 200 nM) is inactive: -2.4, the TEAD-luciferase reporter activity (compound concentration: 2 uM) is inactive: 1.7 and the TEAD-luciferase reporter activity (compound concentration: 10 uM) is inactive: 3.55.

For `N=C(N)Nc1ncc(Cl)c2ccc(-c3cccc(C(=O)O)c3)cc12`, the TEAD-luciferase reporter activity reads like this: (compound concentration: 200 nM) inactive: -0.0239; (compound concentration: 2 uM) inactive: -0.782; (compound concentration: 10 uM) inactive: 1.02.

Turning to `COc1ccccc1[C@H](c1cccc2ccccc12)[C@@](C)(C#N)C(=O)N1CCC(c2cccc(C(F)(F)F)c2)CC1`, the TEAD-luciferase reporter activity runs as follows: (compound concentration: 200 nM) inactive: -0.266; (compound concentration: 2 uM) inactive: 0.103; (compound concentration: 10 uM) inactive: 4.41.

Regarding `COc1ccnc2c1CCCCC2S(=O)c1nc2ccccc2[nH]1` (stereo not given), the TEAD-luciferase reporter activity by setting is: (compound concentration: 200 nM) inactive: -1.32; (compound concentration: 2 uM) inactive: 0.176; (compound concentration: 10 uM) inactive: 0.157.

`CC(C)CC(=O)N[C@@H](CCCCNC(=O)c1ccc(C(=N)N)cc1)CC(=O)O`: the TEAD-luciferase reporter activity runs as follows: (compound concentration: 200 nM) inactive: -0.303; (compound concentration: 2 uM) inactive: -0.781; (compound concentration: 10 uM) inactive: 0.292.

On to `Cc1cc(C)c2c(c1)[C@@H](N(Cc1cc(C(F)(F)F)cc(C(F)(F)F)c1)c1nnn(C)n1)CCCN2C[C@H]1CC[C@H](C(=O)O)CC1` [evacetrapib], for which the TEAD-luciferase reporter activity is inactive: 0.271 (compound concentration: 200 nM), inactive: -0.986 (compound concentration: 2 uM) and inactive: -0.616 (compound concentration: 10 uM).

As to `O=C(O)CP(=O)(O)O` [fosfonet sodium], the TEAD-luciferase reporter activity is inactive: 0.586 (compound concentration: 200 nM), inactive: -1.27 (compound concentration: 2 uM) and inactive: -0.00988 (compound concentration: 10 uM).

Regarding `CC(=O)Oc1ccc(C(=C2CCCCC2)c2ccc(OC(C)=O)cc2)cc1` [cyclofenil], the TEAD-luciferase reporter activity (compound concentration: 200 nM) was inactive: -0.00172, the TEAD-luciferase reporter activity (compound concentration: 2 uM) is inactive: -1.64 and the TEAD-luciferase reporter activity (compound concentration: 10 uM) was inactive: -0.698.

Take `COc1nc2nc(C(=O)c3ccccc3)cn2c2c1CCCC2`: the TEAD-luciferase reporter activity is, setting by setting: (compound concentration: 200 nM) inactive: 2.21; (compound concentration: 2 uM) inactive: -1.34; (compound concentration: 10 uM) inactive: 1.81.

For `Cn1c(=O)c2[nH]c(Cc3ccc(Cl)cc3)nc2n(C)c1=O`, the TEAD-luciferase reporter activity is, setting by setting: (compound concentration: 200 nM) inactive: -2.62; (compound concentration: 2 uM) inactive: 0.648; (compound concentration: 10 uM) inactive: 3.46.

For `Cc1nc2ccccc2c(-c2ccc3c(c2)CCCO3)c1C(OC(C)(C)C)C(=O)O` (stereo not given), the TEAD-luciferase reporter activity is, setting by setting: (compound concentration: 200 nM) inactive: 0.149; (compound concentration: 2 uM) inactive: 1.58; (compound concentration: 10 uM) inactive: -2.01.

As for `O=C(O)/C=C/c1ccc(Cn2ccnc2)cc1`, the TEAD-luciferase reporter activity is, setting by setting: (compound concentration: 200 nM) inactive: -1.19; (compound concentration: 10 uM) inactive: -0.0937.

`O=C(O)/C=C/c1ccc(Cn2ccnc2)cc1` [ozagrel]: the TEAD-luciferase reporter activity (compound concentration: 2 uM) was inactive: -0.0265.

In the case of `COc1cc2ncnc(N3CCN(C(=O)OCC(C)C)CC3)c2cc1OC`, the TEAD-luciferase reporter activity reads like this: (compound concentration: 200 nM) inactive: -0.25; (compound concentration: 2 uM) inactive: -2.28; (compound concentration: 10 uM) inactive: 1.93.

In the case of `CN1CCC(=C2c3ccccc3CCc3sccc32)CC1` [Pizotyline], the TEAD-luciferase reporter activity was inactive: -1.05 (compound concentration: 200 nM) and inactive: -0.222 (compound concentration: 10 uM).

With `CN1CCC(=C2c3ccccc3CCc3sccc32)CC1` [pizotifen], the TEAD-luciferase reporter activity (compound concentration: 2 uM) was inactive: -0.11.

On to `CC(C)[C@@H]1NC(=O)[C@H](CCCCN)NC(=O)[C@@H](Cc2c[nH]c3ccccc23)NC(=O)[C@H](Cc2ccc(O)cc2)NC(=O)[C@H](C)N(C)C(=O)[C@H](Cc2ccccc2)NC1=O` [Seglitide], for which the TEAD-luciferase reporter activity is, setting by setting: (compound concentration: 200 nM) inactive: -0.825; (compound concentration: 2 uM) inactive: 0.238; (compound concentration: 10 uM) inactive: -3.

Take `CCN(CC)CC(O)CNc1c2ccc(Cl)cc2nc2ccc(OC)cc12` (stereo not given): the TEAD-luciferase reporter activity runs as follows: (compound concentration: 200 nM) inactive: -0.853; (compound concentration: 2 uM) active: 7.3; (compound concentration: 10 uM) inactive: -0.0642.

With `CSCC[C@H](NC(=O)[C@H](Cc1ccc(OS(=O)(=O)O)cc1)NC(=O)[C@@H](N)CC(=O)O)C(=O)NCC(=O)N[C@@H](Cc1c[nH]c2ccccc12)C(=O)N[C@@H](CCSC)C(=O)N[C@@H](CC(=O)O)C(=O)N[C@@H](Cc1ccccc1)C(N)=O` [Sincalide], the TEAD-luciferase reporter activity was inactive: 0.408 (compound concentration: 200 nM), inactive: -1.08 (compound concentration: 2 uM) and inactive: 3.94 (compound concentration: 10 uM).

For the compound `CC(=N)NCCSCC[C@H](N)C(=O)O`, the TEAD-luciferase reporter activity by setting is: (compound concentration: 200 nM) inactive: -0.721; (compound concentration: 2 uM) inactive: 0.525; (compound concentration: 10 uM) inactive: -1.68.

Turning to `CO[C@H]1/C=C/O[C@@]2(C)Oc3c(C)c(O)c4c(O)c(c(N5CCN(Cc6c(C)cc(C)cc6C)CC5)c(O)c4c3C2=O)NC(=O)/C(C)=C\C=C\[C@H](C)[C@H](O)[C@@H](C)[C@@H](O)[C@@H](C)[C@H](OC(C)=O)[C@@H]1C`, the TEAD-luciferase reporter activity reads like this: (compound concentration: 200 nM) inactive: -1.29; (compound concentration: 2 uM) inactive: -1.21; (compound concentration: 10 uM) inactive: -0.605.

On to `CC(=O)Nc1ccc(S(=O)(=O)Nc2ccc([N+](=O)[O-])cc2)cc1`, for which the TEAD-luciferase reporter activity reads like this: (compound concentration: 200 nM) inactive: -2.14; (compound concentration: 2 uM) inactive: -1.1; (compound concentration: 10 uM) inactive: -2.65.

As to `CC1CCc2c(N3CCC(O)CC3)c(F)cc3c(=O)c(C(=O)O)cn1c23` (stereo not given) [nadifloxacin], the TEAD-luciferase reporter activity was inactive: -0.332 (compound concentration: 200 nM), inactive: 1.26 (compound concentration: 2 uM) and inactive: -0.488 (compound concentration: 10 uM).

In the case of `COc1ccc(-c2ccc(OCc3cc(C(=O)NS(=O)(=O)c4ccccc4C)oc3C)cc2)nc1`, the TEAD-luciferase reporter activity is inactive: -0.387 (compound concentration: 200 nM), inactive: -0.224 (compound concentration: 2 uM) and inactive: 2.49 (compound concentration: 10 uM).

As to `[Ca+2]` [Calcium Bromide], the TEAD-luciferase reporter activity reads like this: (compound concentration: 200 nM) inactive: -0.549; (compound concentration: 10 uM) inactive: 1.64.

On to `CO[C@H]1C[C@@H](O[C@H]2[C@H](C)O[C@H](O[C@@H]3/C(C)=C/CC4C[C@@H](C[C@]5(C=C[C@H](C)[C@@H](C6CCCCC6)O5)O4)OC(=O)[C@@H]4C=C(C)[C@@H](O)[C@H]5OC/C(=C\C=C\[C@@H]3C)[C@]54O)C[C@@H]2OC)O[C@@H](C)[C@@H]1O`, for which the TEAD-luciferase reporter activity reads like this: (compound concentration: 200 nM) inactive: -1.56; (compound concentration: 2 uM) inactive: -0.908; (compound concentration: 10 uM) inactive: 2.41.

Source of the values: the supplement of paper PMC10735217.
